{"source": "paper PMC8006202", "about": "“Influence of YES1 Kinase and Tyrosine Phosphorylation on the Activity of OCT1” (Frontiers in Pharmacology, 2021)", "system": "OCT1/OCT2 (OCT1/2)-deficient mice", "assay": "Targeted metabolomics / IBC levels in wild-type versus OCT1/2-deficient mice", "format": "in vivo, mouse", "key": {"[1]": {"settings": "liver, OCT1/2-deficient vs wild-type mice, females"}, "[2]": {"settings": "liver, OCT1/2-deficient vs wild-type mice, males"}}}
{"smiles": "CCCCCCCC(=O)O[C@H](CC(=O)O)C[N+](C)(C)C", "note": "[carnitine-C8]", "values": [{"measurement": "Fold-change Female (KO/WT)", "setting": "[1]", "result": 1.15}, {"measurement": "Fold-change Male (KO/WT)", "setting": "[2]", "result": 1.85}]}
{"smiles": "NC(=O)c1cccnc1", "note": "[nicotinamide]", "values": [{"measurement": "Fold-change Female (KO/WT)", "setting": "[1]", "result": 1.05}, {"measurement": "Fold-change Male (KO/WT)", "setting": "[2]", "result": 1.03}]}
{"smiles": "N[C@@H](Cc1ccc(O)cc1)C(=O)O", "note": "[tyrosine]", "values": [{"measurement": "Fold-change Female (KO/WT)", "setting": "[1]", "result": 0.93}, {"measurement": "Fold-change Male (KO/WT)", "setting": "[2]", "result": 0.87}]}
{"smiles": "N[C@@H](Cc1ccccc1)C(=O)O", "note": "[phenyl-alanine]", "values": [{"measurement": "Fold-change Female (KO/WT)", "setting": "[1]", "result": 0.90}, {"measurement": "Fold-change Male (KO/WT)", "setting": "[2]", "result": 0.84}]}
{"smiles": "NC(N)=NCC(=O)O", "note": "[guanidoacetic acid]", "values": [{"measurement": "Fold-change Female (KO/WT)", "setting": "[1]", "result": 0.87}, {"measurement": "Fold-change Male (KO/WT)", "setting": "[2]", "result": 0.76}]}
{"smiles": "Nc1ncnc2c1ncn2[C@@H]1O[C@H](CSCC[C@H](N)C(=O)O)[C@@H](O)[C@H]1O", "note": "[S-adenosyl-homocysteine]", "values": [{"measurement": "Fold-change Female (KO/WT)", "setting": "[1]", "result": 1.00}, {"measurement": "Fold-change Male (KO/WT)", "setting": "[2]", "result": 1.18}]}
{"smiles": "C[N+](C)(C)CCOP(=O)([O-])OC[C@H](O)CO", "note": "[glycerophosphorylcholine]", "values": [{"measurement": "Fold-change Female (KO/WT)", "setting": "[1]", "result": 0.87}, {"measurement": "Fold-change Male (KO/WT)", "setting": "[2]", "result": 1.25}]}
{"smiles": "N[C@@H](CCC(=O)N[C@@H](CS)C(=O)NCC(=O)O)C(=O)O", "note": "[GSH]", "values": [{"measurement": "Fold-change Female (KO/WT)", "setting": "[1]", "result": 0.93}, {"measurement": "Fold-change Male (KO/WT)", "setting": "[2]", "result": 0.75}]}
{"smiles": "Cn1cnc(C[C@H](N)C(=O)O)c1", "note": "[1-methyl-histidine]", "values": [{"measurement": "Fold-change Female (KO/WT)", "setting": "[1]", "result": 0.58}, {"measurement": "Fold-change Male (KO/WT)", "setting": "[2]", "result": 0.60}]}
{"smiles": "NC(=O)NC1NC(=O)NC1=O", "note": "(stereo not shown) [allantoin]", "values": [{"measurement": "Fold-change Female (KO/WT)", "setting": "[1]", "result": 0.84}, {"measurement": "Fold-change Male (KO/WT)", "setting": "[2]", "result": 0.61}]}
{"smiles": "O=C(O)[C@H]1O[C@H](OP(=O)(O)OP(=O)(O)OC[C@H]2O[C@@H](n3ccc(=O)[nH]c3=O)[C@H](O)[C@@H]2O)[C@H](O)[C@@H](O)[C@@H]1O", "note": "[UDP-glucuronic acid]", "values": [{"measurement": "Fold-change Female (KO/WT)", "setting": "[1]", "result": 0.64}, {"measurement": "Fold-change Male (KO/WT)", "setting": "[2]", "result": 0.98}]}
{"smiles": "N[C@@H](Cc1c[nH]cn1)C(=O)O", "note": "[histidine]", "values": [{"measurement": "Fold-change Female (KO/WT)", "setting": "[1]", "result": 1.17}, {"measurement": "Fold-change Male (KO/WT)", "setting": "[2]", "result": 0.84}]}
{"smiles": "OC[C@H]1O[C@@H](n2cnc3c(O)nc(O)nc32)[C@H](O)[C@@H]1O", "note": "[xanthosine]", "values": [{"measurement": "Fold-change Female (KO/WT)", "setting": "[1]", "result": 0.93}, {"measurement": "Fold-change Male (KO/WT)", "setting": "[2]", "result": 1.14}]}
{"smiles": "O=C(O)[C@@H]1CCCN1", "note": "[proline]", "values": [{"measurement": "Fold-change Female (KO/WT)", "setting": "[1]", "result": 0.98}, {"measurement": "Fold-change Male (KO/WT)", "setting": "[2]", "result": 0.80}]}
{"smiles": "O=C(O)c1cccnc1C(=O)O", "note": "[quinolinate]", "values": [{"measurement": "Fold-change Female (KO/WT)", "setting": "[1]", "result": 0.62}, {"measurement": "Fold-change Male (KO/WT)", "setting": "[2]", "result": 0.74}]}
{"smiles": "C[N+](C)(C)CCOP(=O)(O)O", "note": "[phosphorylcholine]", "values": [{"measurement": "Fold-change Female (KO/WT)", "setting": "[1]", "result": 1.29}, {"measurement": "Fold-change Male (KO/WT)", "setting": "[2]", "result": 0.81}]}
{"smiles": "O=c1cc[nH]c(=O)[nH]1", "note": "[uracil]", "values": [{"measurement": "Fold-change Female (KO/WT)", "setting": "[1]", "result": 1.06}, {"measurement": "Fold-change Male (KO/WT)", "setting": "[2]", "result": 0.90}]}
{"smiles": "N[C@@H](Cc1c[nH]c2ccccc12)C(=O)O", "note": "[tryptophan]", "values": [{"measurement": "Fold-change Female (KO/WT)", "setting": "mouse, in vivo", "result": 0.88}, {"measurement": "Fold-change Male (KO/WT)", "setting": "mouse, in vivo", "result": 0.98}]}
{"smiles": "CCC(=O)O[C@H](CC(=O)[O-])C[N+](C)(C)C", "note": "[carnitine-C3]", "values": [{"measurement": "Fold-change Female (KO/WT)", "setting": "[1]", "result": 4.95}, {"measurement": "Fold-change Male (KO/WT)", "setting": "[2]", "result": 6.79}]}
{"smiles": "Cc1ncc(C[n+]2csc(CCO)c2C)c(N)n1", "note": "[thiamine]", "values": [{"measurement": "Fold-change Female (KO/WT)", "setting": "[1]", "result": 0.86}, {"measurement": "Fold-change Male (KO/WT)", "setting": "[2]", "result": 0.79}]}
{"smiles": "Nc1ncnc2[nH]cnc12", "note": "[adenine]", "values": [{"measurement": "Fold-change Female (KO/WT)", "setting": "[1]", "result": 0.99}, {"measurement": "Fold-change Male (KO/WT)", "setting": "[2]", "result": 0.95}]}
{"smiles": "CCCCCCCCCCCCCCCC(=O)OC(CC(=O)[O-])C[N+](C)(C)C", "note": "(stereo not shown) [carnitine-C16]", "values": [{"measurement": "Fold-change Female (KO/WT)", "setting": "[1]", "result": 2.01}, {"measurement": "Fold-change Male (KO/WT)", "setting": "[2]", "result": 2.83}]}
{"smiles": "NC(=O)NCCC[C@H](N)C(=O)O", "note": "[citrulline]", "values": [{"measurement": "Fold-change Female (KO/WT)", "setting": "[1]", "result": 0.87}, {"measurement": "Fold-change Male (KO/WT)", "setting": "[2]", "result": 0.55}]}
{"smiles": "NC(CCS)C(=O)O", "note": "(stereo not shown) [homocysteine]", "values": [{"measurement": "Fold-change Female (KO/WT)", "setting": "[1]", "result": 0.78}, {"measurement": "Fold-change Male (KO/WT)", "setting": "[2]", "result": 0.73}]}
{"smiles": "CC(=O)OCC[N+](C)(C)C", "note": "[acetyl-choline]", "values": [{"measurement": "Fold-change Female (KO/WT)", "setting": "[1]", "result": 3.02}, {"measurement": "Fold-change Male (KO/WT)", "setting": "[2]", "result": 1.77}]}
{"smiles": "O=C(CO)[C@@H](O)[C@H](O)[C@H](O)[C@H](O)COP(=O)(O)O", "note": "[sedoheptulose-7-phosphate]", "values": [{"measurement": "Fold-change Female (KO/WT)", "setting": "[1]", "result": 1.14}, {"measurement": "Fold-change Male (KO/WT)", "setting": "[2]", "result": 0.84}]}
{"smiles": "O=c1[nH]cnc2nc[nH]c12", "note": "[hypoxanthine]", "values": [{"measurement": "Fold-change Female (KO/WT)", "setting": "[1]", "result": 1.03}, {"measurement": "Fold-change Male (KO/WT)", "setting": "[2]", "result": 1.07}]}
{"smiles": "CN(C)CC(=O)O", "note": "[dimethylglycine]", "values": [{"measurement": "Fold-change Female (KO/WT)", "setting": "[1]", "result": 0.91}, {"measurement": "Fold-change Male (KO/WT)", "setting": "[2]", "result": 1.05}]}
{"smiles": "c1ncc2nc[nH]c2n1", "note": "[purine]", "values": [{"measurement": "Fold-change Female (KO/WT)", "setting": "[1]", "result": 0.84}, {"measurement": "Fold-change Male (KO/WT)", "setting": "[2]", "result": 0.81}]}
{"smiles": "CC(=O)NCCCC[C@H](N)C(=O)O", "note": "[acetyllysine]", "values": [{"measurement": "Fold-change Female (KO/WT)", "setting": "[1]", "result": 0.69}, {"measurement": "Fold-change Male (KO/WT)", "setting": "[2]", "result": 0.58}]}
{"smiles": "N[C@@H](CC(=O)O)C(=O)O", "note": "[aspartate]", "values": [{"measurement": "Fold-change Female (KO/WT)", "setting": "[1]", "result": 0.95}, {"measurement": "Fold-change Male (KO/WT)", "setting": "[2]", "result": 0.63}]}
{"smiles": "O=C[C@H](O)[C@H](O)[C@H](O)COP(=O)(O)O", "note": "[ribose 5-phosphate]", "values": [{"measurement": "Fold-change Female (KO/WT)", "setting": "[1]", "result": 0.85}, {"measurement": "Fold-change Male (KO/WT)", "setting": "[2]", "result": 0.91}]}
{"smiles": "O=C(O)[C@@H]1C[C@@H](O)CN1", "note": "[hydroxy-proline]", "values": [{"measurement": "Fold-change Female (KO/WT)", "setting": "[1]", "result": 0.99}, {"measurement": "Fold-change Male (KO/WT)", "setting": "[2]", "result": 0.83}]}
{"smiles": "C[N+](C)(C)CC(=O)O", "note": "[betaine]", "values": [{"measurement": "Fold-change Female (KO/WT)", "setting": "[1]", "result": 1.05}, {"measurement": "Fold-change Male (KO/WT)", "setting": "[2]", "result": 0.97}]}
{"smiles": "O=C1CC(C(=O)O)NC(=O)N1", "note": "(stereo not shown) [dihydroorotate]", "values": [{"measurement": "Fold-change Female (KO/WT)", "setting": "[1]", "result": 1.14}, {"measurement": "Fold-change Male (KO/WT)", "setting": "[2]", "result": 0.73}]}
{"smiles": "NCCCCNCCCN", "note": "[spermidine]", "values": [{"measurement": "Fold-change Female (KO/WT)", "setting": "[1]", "result": 1.91}, {"measurement": "Fold-change Male (KO/WT)", "setting": "[2]", "result": 0.44}]}
{"smiles": "C[n+]1cccc(C(N)=O)c1", "note": "[1-methyl-nicotinamide]", "values": [{"measurement": "Fold-change Female (KO/WT)", "setting": "[1]", "result": 1.30}, {"measurement": "Fold-change Male (KO/WT)", "setting": "[2]", "result": 0.29}]}
{"smiles": "NCCS(=O)(=O)O", "note": "[taurine]", "values": [{"measurement": "Fold-change Female (KO/WT)", "setting": "[1]", "result": 0.92}, {"measurement": "Fold-change Male (KO/WT)", "setting": "[2]", "result": 0.64}]}
{"smiles": "CCCCCCCCCCCCCCCCCC(=O)O[C@H](CC(=O)[O-])C[N+](C)(C)C", "note": "[carnitine-C18]", "values": [{"measurement": "Fold-change Female (KO/WT)", "setting": "[1]", "result": 1.49}, {"measurement": "Fold-change Male (KO/WT)", "setting": "[2]", "result": 1.83}]}
{"smiles": "O=C(O)[C@H]1OC(O)[C@H](O)[C@@H](O)[C@@H]1O", "note": "(mixture of isomers) [glucuronate]", "values": [{"measurement": "Fold-change Female (KO/WT)", "setting": "[1]", "result": 0.80}, {"measurement": "Fold-change Male (KO/WT)", "setting": "[2]", "result": 1.19}]}
{"smiles": "O=c1[nH]c(=O)c2nc[nH]c2[nH]1", "note": "[xanthine]", "values": [{"measurement": "Fold-change Female (KO/WT)", "setting": "[1]", "result": 0.95}, {"measurement": "Fold-change Male (KO/WT)", "setting": "[2]", "result": 0.95}]}
{"smiles": "O=c1[nH]cnc2c1ncn2[C@H]1C[C@H](O)[C@@H](CO)O1", "note": "[deoxyinosine]", "values": [{"measurement": "Fold-change Female (KO/WT)", "setting": "[1]", "result": 0.75}, {"measurement": "Fold-change Male (KO/WT)", "setting": "[2]", "result": 0.82}]}
{"smiles": "NCCCC[C@H](N)C(=O)O", "note": "[lysine]", "values": [{"measurement": "Fold-change Female (KO/WT)", "setting": "mouse, in vivo", "result": 0.96}, {"measurement": "Fold-change Male (KO/WT)", "setting": "mouse, in vivo", "result": 0.76}]}
{"smiles": "Nc1ccccc1C(=O)CC(N)C(=O)O", "note": "(stereo not shown) [kynurenine]", "values": [{"measurement": "Fold-change Female (KO/WT)", "setting": "[1]", "result": 0.82}, {"measurement": "Fold-change Male (KO/WT)", "setting": "[2]", "result": 1.30}]}
